Results are given in words; binding and its absence hold for the method and conditions named. Binding seen in cells or lysates may run through a third protein. Some binding calls cover weakened binding; strength is not graded here. Each block holds one substance with its values, some of them ahead of it.
Legend:
[1] = molecular target: Beclin-1 (human (endogenous in C28/I2 and primary OA chondrocytes)) (UniProt Q14457); experiment: co-IP; total protein of C28/I2 and OA chondrocytes; Pierce Crosslink Magnetic IP/Co-IP kit; IP: BCL-2, IB: Beclin-1 and IP: Beclin-1, IB: BCL-2; cells untreated or treated with PEP, rapamycin, starvation, or BCL2 plasmid after PEP; n = 3
[2] = molecular target: BCL2 overexpressed from a BCL2 plasmid (UniProt P10415); experiment: as above
[3] = molecular target: B-cell lymphoma 2 (BCL2) (human (endogenous in C28/I2 and primary OA chondrocytes)) (UniProt P10415); experiment: as above
[4] = molecular target: BCL2 (rat) (rat (endogenous in joint tissue)) (UniProt P49950); experiment: co-IP; rat joint tissue of control, HA and HA@PEP groups (prevention and treatment); the text calls it Western blot of BCL2-Beclin1 complex levels

By UniProt entry, the sequences of proteins in these tests, tags left out.
UniProt Q14457: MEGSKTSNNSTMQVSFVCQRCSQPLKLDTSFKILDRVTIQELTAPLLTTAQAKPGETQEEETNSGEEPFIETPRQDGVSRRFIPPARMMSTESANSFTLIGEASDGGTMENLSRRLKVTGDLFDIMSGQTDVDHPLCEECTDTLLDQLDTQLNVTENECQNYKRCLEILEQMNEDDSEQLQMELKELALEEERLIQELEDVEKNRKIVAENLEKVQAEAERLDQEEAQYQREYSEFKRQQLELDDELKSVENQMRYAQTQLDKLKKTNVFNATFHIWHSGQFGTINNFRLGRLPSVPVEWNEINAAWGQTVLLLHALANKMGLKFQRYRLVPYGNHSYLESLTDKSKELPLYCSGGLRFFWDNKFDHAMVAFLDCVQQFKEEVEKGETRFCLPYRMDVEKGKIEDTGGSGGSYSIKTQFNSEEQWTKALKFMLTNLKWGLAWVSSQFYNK
UniProt P10415: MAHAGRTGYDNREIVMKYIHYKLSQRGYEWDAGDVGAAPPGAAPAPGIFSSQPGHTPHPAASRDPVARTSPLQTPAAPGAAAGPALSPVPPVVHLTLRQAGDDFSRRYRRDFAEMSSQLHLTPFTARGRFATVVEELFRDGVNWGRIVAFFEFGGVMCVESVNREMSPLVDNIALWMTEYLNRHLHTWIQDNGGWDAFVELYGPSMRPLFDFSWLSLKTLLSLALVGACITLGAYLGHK
UniProt P49950: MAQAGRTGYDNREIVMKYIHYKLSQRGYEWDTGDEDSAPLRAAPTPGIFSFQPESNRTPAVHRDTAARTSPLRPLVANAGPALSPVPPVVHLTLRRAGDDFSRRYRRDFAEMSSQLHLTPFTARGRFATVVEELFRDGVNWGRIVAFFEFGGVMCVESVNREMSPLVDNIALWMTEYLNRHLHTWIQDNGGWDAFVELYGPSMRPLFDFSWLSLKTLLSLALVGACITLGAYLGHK
UniProt Q91XJ1: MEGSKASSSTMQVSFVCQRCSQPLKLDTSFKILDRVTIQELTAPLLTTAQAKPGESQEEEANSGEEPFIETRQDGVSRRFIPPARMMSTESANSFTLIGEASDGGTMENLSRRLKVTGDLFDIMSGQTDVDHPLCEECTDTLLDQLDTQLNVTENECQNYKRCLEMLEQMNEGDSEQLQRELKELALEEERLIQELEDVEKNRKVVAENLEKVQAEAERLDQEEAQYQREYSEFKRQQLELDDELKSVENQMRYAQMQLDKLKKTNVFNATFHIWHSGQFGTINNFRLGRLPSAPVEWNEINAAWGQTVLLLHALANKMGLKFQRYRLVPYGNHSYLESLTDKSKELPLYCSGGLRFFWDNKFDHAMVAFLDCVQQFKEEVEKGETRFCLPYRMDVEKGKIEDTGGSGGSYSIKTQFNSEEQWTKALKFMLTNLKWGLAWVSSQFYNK

binding [1]: binds
Substance: B-cell lymphoma 2 (BCL2) (from UniProt P10415 1-239)

binding [2]: binds
binding [3]: binds
Substance: Beclin-1 (from UniProt Q14457 1-450)

binding [4]: binds
Substance: Beclin-1 (rat) (from UniProt Q91XJ1 1-448)
